The exact form of at least one protein or probe is not confirmed. For part of these data: The comparison behind a weaker result is the experiment's own reference, which may not be listed here. For part of these data: Tags and fusion partners may be left off the protein sequences shown.

Test in all cases: EMSA
In general terms: In EMSA bound probe runs differently from free probe, usually more slowly.

Data set [1] addresses T1, GmPHD4 VP (Glycine max) (UniProt I1M961).
T1 sequence (looked up, limits assumed): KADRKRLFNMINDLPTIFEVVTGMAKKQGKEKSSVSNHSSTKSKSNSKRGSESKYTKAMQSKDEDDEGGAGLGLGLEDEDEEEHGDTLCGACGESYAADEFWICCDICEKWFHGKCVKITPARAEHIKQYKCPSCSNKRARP
The conditions noted are these: slight, plus non-specific binding; probe annealed in 50 mM NaCl; competitor in ten-fold excess; recombinant protein; protein details: GST (N-term, pGEX-4T-1).

Data set [2] relates to GST-GmPHD1 (Glycine max). The conditions noted are these: reduced by 10x unlabeled probe; probe annealed in 50 mM NaCl; competitor in ten-fold excess; recombinant protein; protein details: GST (N-term, pGEX-4T-1).
Data set [3] relates to GST-GmPHD2 (Glycine max). The settings on record: reduced by 10x unlabeled probe; probe annealed in 50 mM NaCl; competitor in ten-fold excess; recombinant protein; protein details: GST (N-term, pGEX-4T-1).
Data set [4] has as its system GST-GmPHD3 (Glycine max). The settings on record: reduced by 10x unlabeled probe; probe annealed in 50 mM NaCl; competitor in ten-fold excess; recombinant protein; protein details: GST (N-term, pGEX-4T-1).
The target in data set [5] is T2, GmPHD4 PHD domain (Glycine max) (UniProt I1M961).
T2 sequence (looked up, limits assumed): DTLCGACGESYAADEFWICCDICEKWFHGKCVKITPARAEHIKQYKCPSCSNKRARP
The conditions noted are these: probe annealed in 50 mM NaCl; competitor in ten-fold excess; recombinant protein; protein details: GST (N-term, pGEX-4T-1).

The test system of data set [6] is GST-GmPHD4 (Glycine max). The conditions noted are these: reduced by 10x unlabeled probe, strong binding; probe annealed in 50 mM NaCl; competitor in ten-fold excess; recombinant protein; protein details: GST (N-term, pGEX-4T-1).

Take “AATTCGGATCCGTGGAGGTGGAGGTGGAGGTGGAGGTGGAGGGTACCGAGCT / CGGTACCCTCCACCTCCACCTCCACCTCCACCTCCACGGATCCG [5x GTGGAG probe]”: the binding result in data set [1] is “binds more weakly”; in data set [2], “binds”; in data set [3] it was “binds”; in data set [4], “binds”; in data set [5], “binds more weakly”; in data set [6], “binds”.

These data come from paper PMC2747011, “Soybean GmPHD-Type Transcription Regulators Improve Stress Tolerance in Transgenic Arabidopsis Plants”.
